Assay results as given in article doi:10.1101/2024.01.22.576777.
Results are given in words; binding and its absence hold for the method and conditions named. In cells and extracts the contact can be indirect. Some entries that bind do so weakly or less than the wild type.

Protein sequences, listed by entry. Tags and fused reporters are not part of them. Residues count along the entry.
UniProt Q14416, residues 19-872: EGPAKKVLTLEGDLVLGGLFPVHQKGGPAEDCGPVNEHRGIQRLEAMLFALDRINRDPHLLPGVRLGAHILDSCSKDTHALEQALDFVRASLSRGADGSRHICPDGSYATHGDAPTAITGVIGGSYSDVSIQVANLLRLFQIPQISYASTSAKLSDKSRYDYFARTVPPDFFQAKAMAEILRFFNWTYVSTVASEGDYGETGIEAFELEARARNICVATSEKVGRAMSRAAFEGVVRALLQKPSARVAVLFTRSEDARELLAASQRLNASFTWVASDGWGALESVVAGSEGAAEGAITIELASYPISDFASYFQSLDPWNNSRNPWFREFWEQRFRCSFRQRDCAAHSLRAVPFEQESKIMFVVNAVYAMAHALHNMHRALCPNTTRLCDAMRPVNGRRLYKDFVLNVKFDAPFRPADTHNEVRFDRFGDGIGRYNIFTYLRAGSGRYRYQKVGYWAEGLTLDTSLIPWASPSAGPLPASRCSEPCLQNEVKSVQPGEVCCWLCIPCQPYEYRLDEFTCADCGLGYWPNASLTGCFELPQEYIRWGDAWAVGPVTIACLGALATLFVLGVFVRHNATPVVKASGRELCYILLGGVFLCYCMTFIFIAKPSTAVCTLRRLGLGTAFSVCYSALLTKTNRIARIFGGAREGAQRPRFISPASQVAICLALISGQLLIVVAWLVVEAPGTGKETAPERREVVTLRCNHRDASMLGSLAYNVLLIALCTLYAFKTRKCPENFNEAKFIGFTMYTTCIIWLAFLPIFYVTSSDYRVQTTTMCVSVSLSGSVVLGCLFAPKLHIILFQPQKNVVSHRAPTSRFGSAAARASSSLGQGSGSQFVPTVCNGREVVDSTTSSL
UniProt Q14832, residues 23-879: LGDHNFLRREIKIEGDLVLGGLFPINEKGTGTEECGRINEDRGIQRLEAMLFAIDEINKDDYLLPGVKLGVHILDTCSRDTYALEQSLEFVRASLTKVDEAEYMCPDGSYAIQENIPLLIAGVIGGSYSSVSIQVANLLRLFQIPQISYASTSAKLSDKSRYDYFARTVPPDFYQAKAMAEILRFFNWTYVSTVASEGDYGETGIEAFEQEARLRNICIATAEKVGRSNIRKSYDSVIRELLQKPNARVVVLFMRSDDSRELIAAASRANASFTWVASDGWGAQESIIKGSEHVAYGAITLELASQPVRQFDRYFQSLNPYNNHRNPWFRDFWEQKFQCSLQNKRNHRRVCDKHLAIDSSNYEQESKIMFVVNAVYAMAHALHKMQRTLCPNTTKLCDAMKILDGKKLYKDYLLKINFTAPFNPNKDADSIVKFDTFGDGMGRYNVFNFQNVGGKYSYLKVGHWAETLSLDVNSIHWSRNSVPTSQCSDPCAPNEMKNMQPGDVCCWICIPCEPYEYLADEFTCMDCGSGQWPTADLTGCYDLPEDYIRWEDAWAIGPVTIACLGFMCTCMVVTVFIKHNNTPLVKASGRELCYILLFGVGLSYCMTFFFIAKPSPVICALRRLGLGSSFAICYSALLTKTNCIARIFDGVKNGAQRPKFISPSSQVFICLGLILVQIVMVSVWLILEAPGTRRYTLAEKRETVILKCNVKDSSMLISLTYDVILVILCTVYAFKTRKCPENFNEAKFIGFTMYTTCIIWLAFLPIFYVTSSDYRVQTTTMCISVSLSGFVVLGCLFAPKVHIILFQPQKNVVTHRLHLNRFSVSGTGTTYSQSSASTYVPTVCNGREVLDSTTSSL
UniProt P41594, residues 21-1212: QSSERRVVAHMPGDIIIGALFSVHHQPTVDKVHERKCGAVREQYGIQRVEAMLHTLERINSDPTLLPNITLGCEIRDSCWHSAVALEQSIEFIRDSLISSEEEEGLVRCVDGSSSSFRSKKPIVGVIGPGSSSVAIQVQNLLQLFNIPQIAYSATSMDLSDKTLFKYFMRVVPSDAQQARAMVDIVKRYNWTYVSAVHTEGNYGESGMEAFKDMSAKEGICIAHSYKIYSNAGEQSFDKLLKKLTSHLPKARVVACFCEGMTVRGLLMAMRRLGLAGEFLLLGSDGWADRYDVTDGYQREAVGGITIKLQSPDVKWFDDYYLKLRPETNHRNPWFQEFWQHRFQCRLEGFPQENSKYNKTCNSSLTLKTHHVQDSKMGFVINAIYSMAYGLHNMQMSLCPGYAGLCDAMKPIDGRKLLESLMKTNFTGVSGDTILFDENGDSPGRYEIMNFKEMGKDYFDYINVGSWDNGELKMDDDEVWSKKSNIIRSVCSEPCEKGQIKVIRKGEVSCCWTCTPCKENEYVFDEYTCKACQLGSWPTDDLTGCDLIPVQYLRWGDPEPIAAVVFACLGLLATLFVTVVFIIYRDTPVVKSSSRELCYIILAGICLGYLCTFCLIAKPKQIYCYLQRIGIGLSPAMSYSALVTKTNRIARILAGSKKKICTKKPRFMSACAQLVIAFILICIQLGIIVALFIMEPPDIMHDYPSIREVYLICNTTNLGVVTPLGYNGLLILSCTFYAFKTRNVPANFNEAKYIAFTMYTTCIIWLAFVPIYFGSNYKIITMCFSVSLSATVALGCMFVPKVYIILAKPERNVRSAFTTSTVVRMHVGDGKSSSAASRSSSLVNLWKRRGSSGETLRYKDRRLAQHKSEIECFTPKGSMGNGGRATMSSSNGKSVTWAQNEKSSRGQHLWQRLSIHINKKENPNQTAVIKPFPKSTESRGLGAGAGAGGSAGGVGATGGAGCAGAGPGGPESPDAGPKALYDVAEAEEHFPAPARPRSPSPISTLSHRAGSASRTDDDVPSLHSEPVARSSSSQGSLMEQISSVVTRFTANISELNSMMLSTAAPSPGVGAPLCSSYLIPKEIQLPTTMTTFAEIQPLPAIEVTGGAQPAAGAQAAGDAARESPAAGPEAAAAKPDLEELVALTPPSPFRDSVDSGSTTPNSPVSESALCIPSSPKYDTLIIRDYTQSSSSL

How the values were obtained:
Snap-tagged APP (human) = Snap-tagged APP (human) (UniProt P05067); assay: FRET or BRET
[1] = target: Snap-tagged human mGlu2 receptor (human) (UniProt Q14416); assay: FRET or BRET

| Substance | binding (Snap-tagged APP (human)) | binding [1] |
| --- | --- | --- |
| Halo-tagged mGluR3 (from UniProt Q14832 23-879) (receptor) | binds | – |
| Halo-tagged mGluR5 (from UniProt P41594 21-1212) (receptor) | – | no binding |
